Experimental data from paper PMC6817822.
No constants are given. Whether binding was seen depends on the method and setting. Binding seen in cells or lysates may run through a third protein. Some results given as binding are weak or reduced against the parent protein; the word gives no strength.

Sequences of proteins named here, by UniProt entry; tags and fusion partners are left off.
UniProt P46937: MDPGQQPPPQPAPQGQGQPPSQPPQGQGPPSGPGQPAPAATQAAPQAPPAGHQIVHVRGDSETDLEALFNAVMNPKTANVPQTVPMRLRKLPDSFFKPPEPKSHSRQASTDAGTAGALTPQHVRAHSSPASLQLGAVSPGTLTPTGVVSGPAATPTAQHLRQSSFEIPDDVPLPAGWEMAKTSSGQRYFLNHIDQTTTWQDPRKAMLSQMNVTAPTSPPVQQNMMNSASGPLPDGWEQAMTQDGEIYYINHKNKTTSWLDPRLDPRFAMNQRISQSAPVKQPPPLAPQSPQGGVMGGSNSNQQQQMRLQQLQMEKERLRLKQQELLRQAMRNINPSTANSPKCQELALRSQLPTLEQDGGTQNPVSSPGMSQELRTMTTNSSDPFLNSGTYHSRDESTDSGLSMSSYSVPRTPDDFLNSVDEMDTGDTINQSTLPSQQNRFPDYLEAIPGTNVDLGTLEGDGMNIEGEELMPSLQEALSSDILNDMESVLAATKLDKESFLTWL

T1: PR55α regulatory subunit of PP2A (human (endogenous in CD18/HPAF)) (UniProt P63151)
T1 sequence: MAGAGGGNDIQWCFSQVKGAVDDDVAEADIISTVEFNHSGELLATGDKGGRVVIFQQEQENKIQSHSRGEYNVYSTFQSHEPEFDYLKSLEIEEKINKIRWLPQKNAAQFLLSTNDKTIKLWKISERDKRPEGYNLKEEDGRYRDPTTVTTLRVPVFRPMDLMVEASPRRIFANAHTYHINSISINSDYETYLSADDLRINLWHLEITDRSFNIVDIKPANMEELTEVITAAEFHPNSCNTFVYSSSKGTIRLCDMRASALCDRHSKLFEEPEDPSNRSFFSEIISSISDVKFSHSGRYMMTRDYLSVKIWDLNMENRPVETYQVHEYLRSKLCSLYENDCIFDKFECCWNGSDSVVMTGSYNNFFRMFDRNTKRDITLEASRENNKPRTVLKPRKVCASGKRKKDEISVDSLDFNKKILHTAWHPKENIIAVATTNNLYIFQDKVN


Key:
[1] = target: T1, PR55α regulatory subunit of PP2A (human (endogenous in CD18/HPAF)); experiment: co-IP; reciprocal co-immunoprecipitation from 1 mg lysate of CD18/HPAF cells expressing Control-shRNA or PR55α-shRNA, with anti-PR55α (100C1) or anti-YAP antibody; immunoblotting; nonimmunized IgG as control; in Fig. 6b half of the anti-PR55α precipitate was treated with shrimp alkaline phosphatase (10 units/ml, 37 °C, 1 h)
[2] = target: Yes-associated protein (YAP) (human (endogenous in CD18/HPAF)) (UniProt P46937); experiment: as above

Molecule	binding [1]	binding [2]
Yes-associated protein (YAP) (from UniProt P46937 1-504)	binds	–
PR55α regulatory subunit of PP2A (protein, UniProt P63151 1-447) MAGAGGGNDIQWCFSQVKGAVDDDVAEADIISTVEFNHSGELLATGDKGGRVVIFQQEQENKIQSHSRGEYNVYSTFQSHEPEFDYLKSLEIEEKINKIRWLPQKNAAQFLLSTNDKTIKLWKISERDKRPEGYNLKEEDGRYRDPTTVTTLRVPVFRPMDLMVEASPRRIFANAHTYHINSISINSDYETYLSADDLRINLWHLEITDRSFNIVDIKPANMEELTEVITAAEFHPNSCNTFVYSSSKGTIRLCDMRASALCDRHSKLFEEPEDPSNRSFFSEIISSISDVKFSHSGRYMMTRDYLSVKIWDLNMENRPVETYQVHEYLRSKLCSLYENDCIFDKFECCWNGSDSVVMTGSYNNFFRMFDRNTKRDITLEASRENNKPRTVLKPRKVCASGKRKKDEISVDSLDFNKKILHTAWHPKENIIAVATTNNLYIFQDKVN	–	binds
